Results are given in words; binding and its absence hold for the method and conditions named. Binding seen in cells or lysates may run through a third protein. Binding can be weak; no strength is given.

By UniProt entry, the sequences of proteins in these tests, tags left out. Where a name states a change or a piece, a line headed by the entry shows the natural chain unless it says otherwise.
UniProt Q38CY8: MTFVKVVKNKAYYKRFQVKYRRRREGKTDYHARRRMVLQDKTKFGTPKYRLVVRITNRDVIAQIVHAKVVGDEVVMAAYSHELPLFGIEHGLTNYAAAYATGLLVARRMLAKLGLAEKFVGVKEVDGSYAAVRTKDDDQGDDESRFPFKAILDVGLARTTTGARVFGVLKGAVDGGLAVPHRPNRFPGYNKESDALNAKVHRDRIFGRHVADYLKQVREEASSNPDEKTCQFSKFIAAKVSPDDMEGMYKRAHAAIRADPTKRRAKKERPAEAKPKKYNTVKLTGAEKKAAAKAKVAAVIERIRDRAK
UniProt O15758: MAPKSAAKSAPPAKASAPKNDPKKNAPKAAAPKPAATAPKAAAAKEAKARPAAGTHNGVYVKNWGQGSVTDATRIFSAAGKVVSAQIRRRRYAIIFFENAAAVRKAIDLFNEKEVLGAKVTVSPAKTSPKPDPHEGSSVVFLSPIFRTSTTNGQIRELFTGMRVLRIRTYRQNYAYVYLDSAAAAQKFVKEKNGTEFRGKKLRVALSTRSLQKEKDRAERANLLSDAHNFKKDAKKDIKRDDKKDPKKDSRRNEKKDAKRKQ
UniProt O15759: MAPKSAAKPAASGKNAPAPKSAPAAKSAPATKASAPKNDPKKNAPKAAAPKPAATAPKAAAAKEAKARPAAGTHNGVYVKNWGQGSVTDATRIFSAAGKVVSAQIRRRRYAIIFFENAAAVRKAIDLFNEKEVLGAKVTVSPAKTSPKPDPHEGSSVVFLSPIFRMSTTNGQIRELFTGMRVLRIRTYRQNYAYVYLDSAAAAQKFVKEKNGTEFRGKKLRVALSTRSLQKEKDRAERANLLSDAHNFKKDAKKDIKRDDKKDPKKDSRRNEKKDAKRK

The target of this assay is recombinant T. brucei ribosomal protein L5 (histidine fusion) (T. brucei) (UniProt Q38CY8). As to the kind of experiment: co-IP; 100 ng recombinant L5 with 100 ng recombinant P34 or P37, without or with stoichiometric in vitro-transcribed 5S rRNA; Dynabeads cross-linked to anti-L5 peptide antibody, western blot with anti-P34/P37; both purified.

Turning to “recombinant P34 (NRBD1) (histidine fusion) (from UniProt O15758)”, the binding result was “binds”.

Consider “recombinant P37 (NRBD2) (histidine fusion) (from UniProt O15759)”, for which the binding entry was “binds”.

For the origin of these results see publication PMC3409183.
